Source: US20170267750A1, “Method of Treating Ovarian and Renal Cancer Using Antibodies Against T Cell Immunoglobulin Domain and Mucin Domain 1 (TIM-1) Antigen” (Celldex Therapeutics, Inc., priority 2005, published 2017)
Results are given in words; binding and its absence hold for the method and conditions named. Some binding calls cover weakened binding; strength is not graded here.

Chains of the proteins cited; added tags and fusions are not shown. Residues count along the entry.
UniProt Q96D42, residues 21-364: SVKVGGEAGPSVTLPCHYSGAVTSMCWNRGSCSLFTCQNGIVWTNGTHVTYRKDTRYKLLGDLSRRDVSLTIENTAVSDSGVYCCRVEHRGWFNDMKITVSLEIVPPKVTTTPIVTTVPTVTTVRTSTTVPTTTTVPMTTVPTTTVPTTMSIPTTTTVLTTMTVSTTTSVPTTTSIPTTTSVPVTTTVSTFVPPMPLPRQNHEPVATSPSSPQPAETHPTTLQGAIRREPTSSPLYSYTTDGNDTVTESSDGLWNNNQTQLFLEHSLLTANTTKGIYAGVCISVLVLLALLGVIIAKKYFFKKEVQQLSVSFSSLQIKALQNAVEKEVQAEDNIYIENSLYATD

Key:
[1] = target: minimal epitope peptide LPRQNH (human); assay: ELISA on coated truncated peptides
[2] = target: truncated peptide LPRQNHE (Table 10) (human); assay: ELISA reactivity with truncated synthetic peptide
[3] = target: truncated peptide PLPRQNHE (Table 10) (human); assay: ELISA reactivity with truncated synthetic peptide
[4] = target: TIM-1 peptide B) … (human); assay: ELISA on coated peptides
[5] = target: TIM-1 peptide F) … (human); assay: ELISA on coated peptides
[6] = target: TIM-1 peptide C) … (human); assay: ELISA on coated peptides
[7] = target: TIM-1 peptide A) … (human); assay: ELISA on coated peptides
[8] = target: alanine scan peptide …; assay: ELISA reactivity with synthetic peptide (alanine scan)
[9] = target: TIM-1 peptide C) … (human); assay: ELISA reactivity with synthetic peptide
[10] = target: TIM-1 (T cell, immunoglobulin domain and mucin domain 1), cell membrane-bound (human) (UniProt Q96D42); assay: FACS on ACHN and CAKI-2 renal cancer cells
[11] = target: TIM-1 peptide A) … (human); assay: ELISA on coated overlapping TIM-1 peptides

Measured: binding

B1: anti-TIM-1 monoclonal antibody 2.70.2 (antibody, human IgG4, kappa, V domains shown)
VH: QVQLVESGGGVVQPGRSLRLSCAASGFIFSRYGMHWVRQAPGKGLKWVAVIWYDGSNKLYADSVKGRFTISRDNSKNTLYLQMNSLRAEDTAVYYCARDYYDNSRHHWGFDYWGQGTLVTVSS
VL: DIVMTQTPLSLPVTPGEPASISCRSSRSLLDSDDGNTYLDWYLQKPGQSPQLLIYTLSYRASGVPDRFSGSGSGTDFTLKISRVEAEDVGVYYCMQRVEFPITFGQGTRLEIKR
binds: all assays above
